{
  "sequences": {"note": "By UniProt entry, the sequences of proteins in these tests, tags left out. Where a name states a change or a piece, a line headed by the entry shows the natural chain unless it says otherwise.", "UniProt Q16236": "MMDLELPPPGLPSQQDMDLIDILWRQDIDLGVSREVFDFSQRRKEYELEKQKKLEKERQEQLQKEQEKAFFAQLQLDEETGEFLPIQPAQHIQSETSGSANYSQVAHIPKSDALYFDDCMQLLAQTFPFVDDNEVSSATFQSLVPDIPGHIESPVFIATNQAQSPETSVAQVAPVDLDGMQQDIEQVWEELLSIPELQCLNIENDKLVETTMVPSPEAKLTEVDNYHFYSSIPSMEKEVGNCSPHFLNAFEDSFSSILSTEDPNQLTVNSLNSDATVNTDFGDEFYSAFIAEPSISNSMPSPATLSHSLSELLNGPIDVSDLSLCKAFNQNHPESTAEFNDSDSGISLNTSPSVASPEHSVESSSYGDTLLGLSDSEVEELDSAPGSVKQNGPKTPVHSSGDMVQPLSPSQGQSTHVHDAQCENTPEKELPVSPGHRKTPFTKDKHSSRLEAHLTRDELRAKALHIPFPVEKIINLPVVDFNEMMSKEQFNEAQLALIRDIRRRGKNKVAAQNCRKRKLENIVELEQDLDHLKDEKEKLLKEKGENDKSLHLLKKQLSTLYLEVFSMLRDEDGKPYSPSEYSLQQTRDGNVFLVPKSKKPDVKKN"},
  "source": "paper PMC9756947",
  "about": "“Structural basis of transcription regulation by CNC family transcription factor, Nrf2” (Nucleic Acids Research, 2022)",
  "molecular_target": "T1, Nrf2 long fragment, wild type (Homo sapiens) (UniProt Q16236)",
  "T1 sequence": "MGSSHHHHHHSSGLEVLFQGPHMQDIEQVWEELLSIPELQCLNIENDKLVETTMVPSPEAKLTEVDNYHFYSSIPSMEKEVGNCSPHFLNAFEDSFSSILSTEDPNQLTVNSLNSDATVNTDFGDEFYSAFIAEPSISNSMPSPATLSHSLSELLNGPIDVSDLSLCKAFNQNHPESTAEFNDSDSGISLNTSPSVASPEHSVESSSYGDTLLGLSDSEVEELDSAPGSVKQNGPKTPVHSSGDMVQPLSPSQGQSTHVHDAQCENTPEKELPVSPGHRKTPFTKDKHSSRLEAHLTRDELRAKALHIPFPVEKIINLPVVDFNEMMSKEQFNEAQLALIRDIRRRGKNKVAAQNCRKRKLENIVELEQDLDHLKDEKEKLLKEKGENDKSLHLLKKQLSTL",
  "experiment": "EMSA",
  "conditions": "no MafG, shifted band at 256 nM Nrf2, possibly homodimer; EMSA: 20 mM Tris-HCl pH 7.2, 150 mM KCl, 10 mM DTT, 8 mg/ml BSA, 0.005% Tween 20, 50 ng/ml poly(dI-dC), 2.5% Ficoll; probe ~1.6 pM; 16 h (30 min for Jun-Fos); recombinant protein; protein details: N-terminal His6 (not removed); label: 32P 5' end",
  "note": "The exact form of at least one protein or probe is not confirmed. A weaker result is weaker than the reference pair of the same experiment. Protein sequences can lack the tags named with them.",
  "data": [
    {"sequence": "CCGCAGTCACAGTGACTCAGCAGAATCTGA / CTCAGATTCTGCTGAGTCACTGTGACTGCG [EMSA CsMBE probe]", "values": [
      {"measurement": "binding result", "value": "binds more weakly"}
    ]}
  ]
}
